Assay results as given in article PMC8167118.
Results are given in words; binding and its absence hold for the method and conditions named. In cells and extracts the contact can be indirect. Binding can be weak; no strength is given.

Biological target: T1, UBC13 (UBE2N) (mouse (endogenous in BMDCs)) (UniProt P61089)
T1 sequence: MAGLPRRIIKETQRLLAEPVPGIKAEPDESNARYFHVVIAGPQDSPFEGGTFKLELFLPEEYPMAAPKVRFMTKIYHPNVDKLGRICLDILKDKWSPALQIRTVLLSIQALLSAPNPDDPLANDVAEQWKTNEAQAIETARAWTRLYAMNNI
Experiment: co-IP; endogenous proteins of BMDCs, unstimulated or stimulated with TgPFN or LPS in the presence of MG132; lysates precleared, incubated with specific antibodies at 4 °C overnight, Sepharose G beads 2 h, five washes with PBS; WB

binding: binds
Substance: Pellino (mouse (endogenous in BMDCs)) (enzyme)
